Assay results taken from PubChem BioAssay AID504444 (National Center for Advancing Translational Sciences (NCATS), 2011).
Among all 360,000 compounds or so, about 7,500 (2.1%) were called active. The shares of active, inactive and inconclusive entries below differ from those in the screen. The call rests on the fitted dose curve; in most records, active means well fitted inhibition curve with a large enough effect; inconclusive means small, poorly fitted or top-dose-only effect, or effect the other way; inactive means flat fitted curve, though single readings scatter. Potencies beside an inconclusive call are fits to weak or partial responses and may not hold up.

experiment: Nrf2 qHTS screen for inhibitors; settings: A549 ARE-Fluc reporter, luciferase luminescence, 18-24 h; activity change, negative = inhibition: at 46 µM (top of the series); further: nearly all actives have a fitted effect of over 60% in size
In short: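 In this cell-based qHTS, ARE-driven firefly luciferase in A549 cells reports Nrf2 activity; the luminescent signal after BugLite lysis is the measured value, with a prior CellTiter-Fluor read for cell health.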
On the % scale 0 is the no-effect control and ±100 the full control effect; potency means the concentration at half of the fitted maximal effect.

SMILES | Potency | activity change, negative = inhibition
CC1CCN(C(=O)CSc2nc(=O)n3ccccc3n2)CC1 | inconclusive: 25.9 µM [activator, partial curve, poor fit] | 
COc1ccc(CNC(=O)c2cnc3sc(N4CCOCC4)nn3c2=O)cc1 | inactive | 
COc1ccc(Cl)c2sc(N3CCN(C(=O)c4ccco4)CC3)nc12 | inconclusive: 23.1 µM [falling, single point] | 
Cc1ccc(S(=O)(=O)N2CCOCC2)cc1NC(=O)CNC1CCCC1 | inactive | 
O=C(CSC1=Nc2ccccc2C2=NC(CCC(=O)NC3CCCCC3)C(=O)N12)Nc1cccc(C(F)(F)F)c1 (stereo not given) | active: 11.6 µM | 
Cc1c(Cl)c([N+](=O)[O-])nn1Cc1ccc(C(=O)N/N=C\c2cc(Cl)ccc2O)o1 | inconclusive: 23.1 µM [falling, single point] | 
Cc1cc(Cl)ccc1NC(=O)c1cccc(NC(=O)N2CCSc3ncccc32)c1 | inconclusive: 7.31 µM [falling, partial curve, poor fit] | 
Cc1noc(C(=O)Nc2cccc(Cl)c2)c1Cl | inconclusive: 3.66 µM [activator, full curve] | 
O=C(Nc1ccc([N+](=O)[O-])cc1)NN1CCCCCC1 | inconclusive: 29.1 µM [falling, single point] | 
CCc1ccccc1N1CC(c2nc3ccccc3n2CCCOc2ccc(Cl)cc2)CC1=O (stereo not given) | inconclusive: 29.1 µM [falling, single point] | 
CC(NC(=O)COC(=O)c1ccc[nH]c1=O)c1ccccc1 (stereo not given) | inactive | 
O=[N+]([O-])c1cccc(C([O-])=C(C(=S)Nc2cccc3ccccc23)[n+]2ccccc2)c1 | inconclusive: 1.16 µM [activator, full curve, poor fit] | 
c1csc(-c2nc(N3CCOCC3)c3ccccc3n2)c1 | inconclusive: 16.4 µM [falling, partial curve, poor fit] | 
COc1ccc(-n2c(C)nc3c(cnn3-c3ccc(Cl)cc3)c2=O)cc1 | inconclusive: 23.1 µM [falling, single point] | 
CCOc1ccccc1NC(=O)Cn1c(=O)n(CCC(=O)NCc2ccc3c(c2)OCO3)c(=O)c2ccccc21 | inconclusive: 29.1 µM [falling, partial curve, poor fit] | 
CCN(CC)C(=O)CSc1nc2c(sc(=S)n2CC)c(=O)n1-c1ccccc1 | inconclusive: 18.4 µM [falling, partial curve] | 
COc1ccc(C2CC(c3ccc(Br)cc3)=NN2C(=O)CSC2=NCCS2)cc1 (stereo not given) | inconclusive: 29.1 µM [falling, single point] | 
CCCSc1nn2c(=O)c3ccccc3nc2s1 | inconclusive: 25.9 µM [activator, partial curve, poor fit] | 
COc1cc(NC(=O)c2ccc(F)cc2)c(OC)cc1Cl | inconclusive: 9.2 µM [falling, partial curve, poor fit] | 
CN(C)CCC(=O)N1C/C(=C/c2ccccc2)C(=O)/C(=C\c2ccccc2)C1 | inconclusive: 5.8 µM [falling, full curve, poor fit] | 
CCOC(=O)N1CCc2c(sc3c2c(=O)n(-c2ccccc2)c(=O)n3CC(=O)Nc2ccc(OC)cc2OC)C1 |  | inactive: -3.91% [at 9.27 µM]
Cc1nn(-c2ccccc2)c(C)c1NC(=O)COc1ccc(F)cc1Cl | inconclusive: 29.1 µM [falling, single point] | 

SMILES | Potency | activity change, negative = inhibition
COc1ccc(C2C(C#N)=C(N)OC3=C2C(=O)CC(C)(C)C3)c(OC)c1OC (stereo not given) | inconclusive: 25.9 µM [activator, single point] | 
Fc1ccccc1-c1nc(NCCCN2CCOCC2)c2ccccc2n1 | inconclusive: 0.326 µM [falling, full curve] | 
Cc1ccc2occ(/C=N/NC(N)=S)c(=O)c2c1 | inconclusive: 0.146 µM [activator, full curve, poor fit] | 
COc1ccc(C(=O)/C=C/C(=O)N(CC(=O)NC2CCCCC2)Cc2ccc(F)cc2)c(O)c1 | inactive | 
O=C(CC1SC(=Nc2cccc3ccccc23)N(Cc2ccccn2)C1=O)Nc1ccccc1Br (stereo not given) | active: 5.17 µM | 
CCN1CCN(C(=S)NC(=O)c2cccs2)CC1 | inconclusive: 29.1 µM [falling, single point] | 
NC(=O)c1cnn2c(C(F)(F)F)cc(-c3ccc(F)cc3)nc12 | inconclusive: 29.1 µM [falling, single point] | 
O=C1CC(c2nc3ccccc3[nH]2)CN1c1ccccc1 (stereo not given) | inconclusive: 5.17 µM [activator, partial curve] | 
O=C(COc1ccccc1)Nc1ccccc1Cl | inconclusive: 13 µM [activator, single point] | 
COC(=O)C1=NN[C@H](C(=O)OC(C)(C)C)[C@H]1c1ccccc1 | inactive | 
O=C(CN1CCOCC1)N1CCN(c2nnc(-c3ccccc3)c3ccccc23)CC1 | inconclusive: 4.11 µM [activator, full curve, poor fit] | 
Cc1ccc(-c2nnc(-n3nnc4ccccc43)c3ccccc23)cc1 | inconclusive: 29.1 µM [falling, single point] | 
C=CCOc1nc2c(c(=O)n(C)c(=O)n2C)n1Cc1ccccc1 | inconclusive: 29.1 µM [falling, single point] | 
Cc1ccc(NC2=C(Cl)C(=O)OC2OC(=O)c2ccco2)cc1 (stereo not given) | inconclusive: 5.17 µM [falling, single point] | 
COc1cc2c(=O)n(Cc3ccccc3)c(=O)n(CC(=O)NCCc3ccccc3)c2cc1OC | inconclusive: 23.1 µM [falling, partial curve, poor fit] | 
CCOC(CNC(=O)c1ccc2nc(N3CCC(C)CC3)sc2c1)OCC | inconclusive: 0.731 µM [activator, partial curve, poor fit] | 
COCCN(CCOC)c1nc(-c2ccccc2)nc2ccccc12 | inactive | 
COc1cc2c(cc1NC(=O)C(C)N1CCN(S(=O)(=O)c3ccccc3[N+](=O)[O-])CC1)oc1ccccc12 (stereo not given) | inactive | 
CC1CN(S(=O)(=O)c2cccc(-c3csc(-c4ccccc4)n3)c2)CC(C)O1 (stereo not given) | inconclusive: 16.4 µM [falling, single point] | 
C/C(=N\NC(=O)c1c(Cl)c(C)nn1C)c1ccc(NC(=O)COc2ccc(Cl)cc2C)cc1 | inconclusive: 16.4 µM [falling, partial curve, poor fit] | 
COc1ccccc1CNC(=O)c1ccc(Cn2c(SCc3ccccc3)nc3cccnc32)cc1 | inconclusive: 20.6 µM [falling, partial curve, poor fit] | 
CCOc1ccc(C(=O)N2CCC(c3nnc(-c4ccccc4OC)o3)CC2)cc1 | inactive | 

SMILES | Potency | activity change, negative = inhibition
Cc1cc(C)cc(NC(=O)/C=C/c2ccc([N+](=O)[O-])s2)c1 | inactive | 
COCCCNC(=O)C1CCN(c2nc(C)cc(C)n2)CC1 | inactive | 
COc1ccc(N2CCN(C(=O)c3cn(C4CCCC4)c(=O)c4c3c3ccccc3n4C)CC2)cc1 | inconclusive: 18.4 µM [falling, single point] | 
O=C(Nc1ccc2ccccc2c1)c1cc(F)c(F)cc1Cl | inconclusive: 8.2 µM [activator, partial curve] | 
Cc1cccc([C@@H]2[C@@H]3C(=O)N(Cc4ccccc4)C(=O)[C@@H]3[C@]3(C)C(=O)N(c4ccc(C(F)(F)F)cc4)C(=O)N23)c1 | inconclusive: 29.1 µM [falling, single point] | 
COc1ccc(NC(=O)CC2SC(=Nc3ccccc3)NC2=O)c(OC)c1 (stereo not given) | inconclusive: 0.103 µM [falling, full curve, poor fit] | 
O=c1[nH]c(Nc2ccc(F)cc2)cc2ccccc12 | inconclusive: 32.6 µM [falling, single point] | 
Cc1cccc(C(=O)N(CCc2ccccc2)Cc2ccccc2)c1[N+](=O)[O-] | active: 20.6 µM | 
COc1ccc(-c2noc(N3CCC(C(=O)N(C)c4ccccc4C)CC3)n2)cc1 | inconclusive: 23.1 µM [falling, single point] | 
CC(=O)N1CC(C)Sc2ccc(S(=O)(=O)NCCc3ccc(C)cc3)cc21 (stereo not given) | active: 7.31 µM | 
COc1ccc(C(=O)NCCCNC(=O)c2cccnc2)cc1OC | active: 10.3 µM | 
CCCn1c(C)cc(C(=O)CSc2nc3nc(C)cc(C)n3n2)c1C | inactive | 
CC(Sc1nnc(-c2ccc(Cl)cc2Cl)n1Cc1ccccc1)C(=O)Nc1nccs1 (stereo not given) | inconclusive: 18.4 µM [falling, single point] | 
O=C(N/N=C/c1ccc([N+](=O)[O-])o1)c1ccc(NS(=O)(=O)c2cccs2)cc1 | inconclusive: 20.6 µM [falling, single point] | 
Cc1cc2ccccc2n1CCNC(=O)COc1ccccc1 | inactive | 
O=C(CSCc1ccccc1)N1CCN(Cc2ccc3c(c2)OCO3)CC1 | inactive | 
CCOC(=O)c1cc(-c2ccccc2C)nn1CC1CC(c2ccc(OC)cc2)=NO1 (stereo not given) | inconclusive: 16.4 µM [falling, partial curve, poor fit] | 
COc1ccccc1C(=O)N/N=C/c1c[nH]c2ccccc12 | inconclusive: 18.4 µM [activator, partial curve] | 
CCO/C(C)=N/n1c2nc3ccccc3nc2c2c(=O)n(C3CCCC3)c(C)nc21 | inconclusive: 4.11 µM [activator, single point] | 
C[C@H](NC(=O)c1[nH]cnc1C(=O)Nc1ccccc1)C(=O)OC(C)(C)C | inconclusive: 29.1 µM [falling, single point] | 
CCOc1ccccc1NC(=O)CN1C(=O)CC(c2ccco2)Sc2ccccc21 (stereo not given) | inactive | 

In the list so far, these have a CF3 group.
SMILES | Potency | activity change, negative = inhibition
O=C(CSC1=Nc2ccccc2C2=NC(CCC(=O)NC3CCCCC3)C(=O)N12)Nc1cccc(C(F)(F)F)c1 (stereo not given) | active: 11.6 µM | 
NC(=O)c1cnn2c(C(F)(F)F)cc(-c3ccc(F)cc3)nc12 | inconclusive: 29.1 µM [falling, single point] | 
Cc1cccc([C@@H]2[C@@H]3C(=O)N(Cc4ccccc4)C(=O)[C@@H]3[C@]3(C)C(=O)N(c4ccc(C(F)(F)F)cc4)C(=O)N23)c1 | inconclusive: 29.1 µM [falling, single point] | 
